Data as given in publication PMC9792525.

The chains behind the UniProt entries cited, without tags or fusion partners. Where a name states a change or a piece, a line headed by the entry shows the natural chain unless it says otherwise.
UniProt A0A1P8B7J4: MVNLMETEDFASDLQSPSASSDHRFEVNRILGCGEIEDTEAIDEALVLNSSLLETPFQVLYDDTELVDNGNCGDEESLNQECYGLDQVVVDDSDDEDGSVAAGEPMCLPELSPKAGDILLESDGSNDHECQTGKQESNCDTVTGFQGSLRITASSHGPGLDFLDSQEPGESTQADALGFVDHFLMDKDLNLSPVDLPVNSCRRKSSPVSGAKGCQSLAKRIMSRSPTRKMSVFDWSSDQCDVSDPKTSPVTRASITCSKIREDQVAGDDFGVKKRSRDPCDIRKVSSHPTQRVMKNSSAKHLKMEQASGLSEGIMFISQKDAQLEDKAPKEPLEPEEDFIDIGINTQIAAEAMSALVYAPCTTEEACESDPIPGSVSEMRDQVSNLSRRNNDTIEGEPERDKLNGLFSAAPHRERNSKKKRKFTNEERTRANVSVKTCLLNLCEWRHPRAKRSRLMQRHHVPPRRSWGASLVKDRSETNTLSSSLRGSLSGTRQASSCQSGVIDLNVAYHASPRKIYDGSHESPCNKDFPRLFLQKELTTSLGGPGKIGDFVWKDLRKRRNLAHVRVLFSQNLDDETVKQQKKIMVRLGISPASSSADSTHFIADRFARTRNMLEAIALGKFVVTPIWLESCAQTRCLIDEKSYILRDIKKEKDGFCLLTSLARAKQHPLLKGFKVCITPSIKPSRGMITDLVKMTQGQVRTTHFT

What was measured:
[1] = biological target: T1, GST-fused RAD51 (Arabidopsis) (UniProt P94102); test: pull-down; GST-RAD51 or GST immobilized on glutathione-Sepharose 4B beads, mixed with His-SUMO-XIP-M 4 h at 4 °C in 1x PBS, 0.2% NP-40, 1 mM DTT; washed with 20 mM Tris-HCl pH 8.0, 0.5 M NaCl, 0.5% NP-40; Western blot with anti-His; both purified
T1 sequence: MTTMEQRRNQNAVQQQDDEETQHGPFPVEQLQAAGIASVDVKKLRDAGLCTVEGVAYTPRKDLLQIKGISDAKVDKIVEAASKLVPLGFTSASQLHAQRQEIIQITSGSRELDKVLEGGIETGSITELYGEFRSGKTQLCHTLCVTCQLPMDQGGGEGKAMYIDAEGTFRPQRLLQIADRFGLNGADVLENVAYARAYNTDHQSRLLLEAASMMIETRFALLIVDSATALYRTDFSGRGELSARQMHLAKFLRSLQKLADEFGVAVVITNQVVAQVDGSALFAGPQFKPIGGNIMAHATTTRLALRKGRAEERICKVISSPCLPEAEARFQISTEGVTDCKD

[2] = biological target: N-terminally Myc-tagged XIP-M (Arabidopsis); test: co-IP; Myc-XIP-M and RAD51-FLAG co-expressed in Arabidopsis mesophyll protoplasts; lysate immunoprecipitated with anti-Myc and protein A beads; Western blot with anti-Myc and anti-FLAG

For “His-SUMO-tagged full-length XIP-M (from UniProt A0A1P8B7J4)”, the binding [1] was “binds”.

B1: FLAG-tagged RAD51 (protein, UniProt P94102 1-342)
chain: MTTMEQRRNQNAVQQQDDEETQHGPFPVEQLQAAGIASVDVKKLRDAGLCTVEGVAYTPRKDLLQIKGISDAKVDKIVEAASKLVPLGFTSASQLHAQRQEIIQITSGSRELDKVLEGGIETGSITELYGEFRSGKTQLCHTLCVTCQLPMDQGGGEGKAMYIDAEGTFRPQRLLQIADRFGLNGADVLENVAYARAYNTDHQSRLLLEAASMMIETRFALLIVDSATALYRTDFSGRGELSARQMHLAKFLRSLQKLADEFGVAVVITNQVVAQVDGSALFAGPQFKPIGGNIMAHATTTRLALRKGRAEERICKVISSPCLPEAEARFQISTEGVTDCKD
B1 was tested, and the binding [2] was “binds”.

These are yes or no findings as the source states them, for the method shown. Binding calls can cover weak binding; strength is not graded here. Where a sequence is shown, tags or fusion partners need not be part of it. For some assays here: In cells and extracts the contact can be indirect.
